Results published in patent US5792920A, “Plants with altered ability to synthesize starch and process for obtaining them” (Imperial Chemical Industries PLC, priority 1988, dated 1998).
At least one structure is not confirmed: it was looked up by name or label, or the drawing left a doubt.

Target: T1, wheat endosperm ADP-glucose pyrophosphorylase (Triticum aestivum, UniProt P12299+P30523)
T1 sequence (P12299 63-522): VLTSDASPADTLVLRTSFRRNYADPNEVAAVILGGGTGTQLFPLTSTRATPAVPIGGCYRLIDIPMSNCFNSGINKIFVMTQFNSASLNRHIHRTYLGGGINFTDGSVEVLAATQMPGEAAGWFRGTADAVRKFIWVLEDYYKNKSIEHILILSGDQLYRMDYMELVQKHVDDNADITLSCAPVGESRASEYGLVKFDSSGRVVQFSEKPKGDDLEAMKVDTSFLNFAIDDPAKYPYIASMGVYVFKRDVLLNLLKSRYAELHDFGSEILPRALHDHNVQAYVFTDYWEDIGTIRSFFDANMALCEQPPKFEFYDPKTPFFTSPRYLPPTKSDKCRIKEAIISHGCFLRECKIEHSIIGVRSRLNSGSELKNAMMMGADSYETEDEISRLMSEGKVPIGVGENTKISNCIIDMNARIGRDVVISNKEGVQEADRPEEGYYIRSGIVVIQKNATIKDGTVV
T1 sequence (P30523 1-473): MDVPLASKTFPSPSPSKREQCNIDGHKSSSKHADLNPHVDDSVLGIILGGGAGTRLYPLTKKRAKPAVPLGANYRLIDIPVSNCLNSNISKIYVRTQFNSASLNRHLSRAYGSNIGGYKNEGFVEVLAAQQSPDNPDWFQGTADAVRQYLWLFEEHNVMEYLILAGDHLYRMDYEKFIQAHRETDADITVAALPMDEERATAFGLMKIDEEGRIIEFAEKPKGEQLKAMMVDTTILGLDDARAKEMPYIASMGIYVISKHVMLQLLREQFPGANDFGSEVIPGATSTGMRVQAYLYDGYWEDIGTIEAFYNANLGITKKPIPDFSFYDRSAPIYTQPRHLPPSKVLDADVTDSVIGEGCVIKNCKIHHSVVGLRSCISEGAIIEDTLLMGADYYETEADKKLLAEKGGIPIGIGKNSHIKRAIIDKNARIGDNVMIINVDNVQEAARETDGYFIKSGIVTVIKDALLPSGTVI
Settings: concentrations of up to 20 mM 3-phosphoglycerate

O=C(O)C(O)COP(=O)(O)O (stereo not shown) [3-phosphoglycerate]
activation of enzyme: not activated
